The values below come from PubChem BioAssay AID2685 (National Center for Advancing Translational Sciences (NCATS), 2010).

Structures are written as SMILES. Where “and” joins values, the source holds several entries; their conditions need not be identical. Equal entries are not always repeated. This is one part of the list. The main result of the screen is listed elsewhere. These columns were measured beside it and carry no call. The list favours compounds with an active or inconclusive main result. Potencies come from curve fits of mixed quality, noted in brackets.

The experiment is described as follows: qHTS Assay for Lipid Storage Modulators in Drosophila S3 Cells.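 On cell number change: cells counted by Cell Tracker Red CMTPX staining in the red channel.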 Particulars: BODIPY lipid droplet fluorescence, 18-24 h; for cell number change: measured here: cell count max response, cells fed with added oleic acid. In short, it runs like this:
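Drosophila S3 cells loaded with oleic acid (400 uM, as added) and compounds at several concentrations; lipid droplets imaged by 488-nm laser-scanning cytometry, 500–530 nm intensity and object ratio to cell channel. Percent activity normalized to 20 uM Triacsin C.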
On the technique in general: qHTS replaces the single test concentration by a dilution series.

The mark [1] stands for this setting: measured here: lipid fluorescence (Fed channel) AC50, cells fed with added oleic acid.
Setting [2] is: measured here: cell number channel AC50, cells fed with added oleic acid.

For orientation: AC50 means the midpoint of the concentration-response curve, whichever way the signal moves. Read a low AC50 as greater potency. For the compound `Cc1ccc(C(=O)N/C(=C\c2ccco2)C(=O)NCCc2c[nH]c3ccccc23)cc1`, the cell number change was 1.37%. Further, the concentration at half-maximal activity (AC50) under setting [1] was 0.00461 µM [rising, full curve, poor fit].

Regarding `COc1cc(/C=C/C(=O)OCC(=O)NC2CCS(=O)(=O)C2)ccc1OC(F)F` (configuration not stated), the cell number change was -23.9%. Further, the AC50 under setting [1] was 0.291 µM [falling, full curve, poor fit].

As for `CSc1nc(NCc2ccco2)c2ccccc2n1`, the concentration at half-maximal activity (AC50) runs as follows: under setting [2], 0.731 µM [rising, single point]; under setting [1], 6.51 µM [rising, single point].

Regarding `Cc1cc(NC(C)C)n2c(nc3ccccc32)c1C#N`, the AC50 under setting [1] is 18.4 µM [falling, partial curve].

For `COc1ccc(S(=O)(=O)N2CCOC2CNC(=O)C(=O)NCCc2ccc(OC)c(OC)c2)cc1` (configuration not stated), the cell number change is -1.49%. Under setting [1], the AC50 was 29.1 µM [falling, single point].

Take `COc1ccccc1C/C(N)=N/OC(=O)c1ccc(C)c([N+](=O)[O-])c1`: the cell number change was -4.89%. The AC50 under setting [1] was 0.731 µM [falling, partial curve, poor fit].

Take `Cc1ccc2cc(C#N)c(SCC(=O)NNC(=O)Cc3ccccc3)nc2c1`: the cell number change was -0.244%. Under setting [1], the concentration at half-maximal activity (AC50) is 23.1 µM [falling, partial curve].

On to `CCCCC(=O)Nc1ccc2c(c1)nc1n2CCOC1`, for which the cell number change was 36.7%. Moreover, the AC50 under setting [2] is 10.3 µM [rising, partial curve, poor fit].

Turning to `COC(=O)c1[nH]c2cccc(OC)c2c1NC(=O)CN1CCN(c2cccc(OC)c2)C(C)C1` (configuration not stated), the half-maximal activity concentration (AC50) under setting [1] is 3.26 µM [rising, partial curve].

Regarding `COC(=O)c1ccc(C)c(NC(=O)c2ccc(CN3CCc4ccccc4C3)cc2)c1`, the cell number change was -16.5%. Besides, under setting [1], the AC50 is 29.1 µM [falling, single point].

Turning to `COc1ccccc1N1CCN(CC(O)COc2cccc3ccccc23)CC1` (configuration not stated), the cell number change is -25% and 11.3% and 16.8%. Moreover, the AC50 under setting [1] is 29.1 µM [falling, single point] and 25.9 µM [rising, single point] and 10.3 µM [rising, partial curve].

On to `CC1CCCN(C(=O)CNC(=O)Cn2ccc3ccccc3c2=O)C1` (configuration not stated), for which the cell number change is -2.45%. The half-maximal activity concentration (AC50) under setting [1] is 25.9 µM [rising, single point].

On to `Brc1ccc(C2=CC(c3ccco3)n3nnnc3N2)cc1` (configuration not stated), for which the cell number change came out at 25%. Further, under setting [1], the AC50 was 18.4 µM [rising, single point].

For the compound `COc1cc(OC)cc(C(=O)OCC(=O)c2cc(C)n(CC3CCCO3)c2C)c1` (configuration not stated), the cell number change stood at 22.8%.

For the compound `CCCOc1ccc(Cn2ccnc2)cc1[N+](=O)[O-]`, the cell number change is -5.35%. For the same compound, the concentration at half-maximal activity (AC50) under setting [1] is 29.1 µM [rising, single point].

As to `COc1ccc(Nc2cc(C)nc(-n3nc(C)cc3C)n2)cc1`, the cell number change was -4.76%.

As to `CCOC(=O)c1c(C)[nH]c(C(=O)OCc2c(C)noc2C)c1C`, the cell number change is -16.4%.

As to `C=CCNS(=O)(=O)c1sccc1/C=N/O`, the cell number change turned out to be 5.85%.

On to `C=CCNC(=S)Nc1ccc2nc(C)oc2c1`, for which the cell number change stood at 101%. Further, the AC50 under setting [2] is 20.6 µM [rising, single point]. The AC50 under setting [1] is 29.1 µM [rising, single point].

Take `OC(COc1ccc(F)cc1Cl)CN1CCC(Cc2ccccc2)CC1` (configuration not stated): the cell number change was -65.9%. In addition, the AC50 under setting [2] is 23.1 µM [falling, single point]. The AC50 under setting [1] is 23.1 µM [falling, single point].

Take `CC(C)COc1ccc(-c2nnn(CC(=O)N3CCCC3)n2)cc1`: the cell number change was found to be 33%. For the same compound, under setting [1], the half-maximal activity concentration (AC50) is 6.51 µM [rising, single point].

In the case of `Cc1ccccc1CN1C(=O)c2ccccc2Sc2ccc(C(=O)NCCCN3CCOCC3)cc21`, the cell number change turned out to be 3.8%. The half-maximal activity concentration (AC50) under setting [1] is 29.1 µM [rising, single point].

`O=C(C1CC1)N1CCN=C1SCc1ccccc1Cl`: the cell number change is 9.39%.

For the compound `Cc1scc(C(=O)N/N=C/c2ccc(OC(C)C)cc2)c1C`, the cell number change is 27.9%. The AC50 under setting [1] is 8.2 µM [rising, partial curve].

Take `COc1ccc(-n2c(-c3ccc(Br)cc3)c[n+]3c2CCCCC3)cc1`: the cell number change was -52.3%. Further, the half-maximal activity concentration (AC50) under setting [2] was 29.1 µM [falling, single point]. The half-maximal activity concentration (AC50) under setting [1] was 29.1 µM [falling, single point].

On to `COc1ccc(C(=O)N=c2c(C#N)cc3c(=O)n4cccc(C)c4nc3n2Cc2ccco2)cc1`, for which the AC50 reads like this: under setting [2], 0.291 µM [rising, full curve]; under setting [1], 0.291 µM [rising, full curve].

For `COc1cccc(-n2nc3c(=O)n(Cc4ccccc4Cl)nc(C)c3c2C)c1`, the cell number change is -0.419%. Further, the concentration at half-maximal activity (AC50) under setting [1] is 6.51 µM [falling, single point].

For `COc1ccc(N2CCN(c3nc(NCCO)nc(N4CCOCC4)n3)CC2)cc1`, the cell number change amounted to 32%. Also, under setting [2], the half-maximal activity concentration (AC50) was 2.31 µM [rising, partial curve]. Besides, the AC50 under setting [1] was 1.16 µM [rising, single point].

On to `CC12CCC(C(=O)NCCc3ccccc3)(OC1=O)C2(C)C` (configuration not stated), for which the cell number change was -68.6%. For the same compound, the AC50 under setting [2] was 1.3 µM [falling, full curve].

`CS(=O)(=O)c1cccc(-c2nnc(NC(=O)c3ccc4ncsc4c3)o2)c1`: the cell number change came to 16.2%.

`O=C(Nc1ccc2c(c1)OCO2)C1CCN(S(=O)(=O)Cc2ccccc2)CC1`: the cell number change was -6.11%. Further, under setting [1], the AC50 is 2.31 µM [rising, partial curve].

On to `CC1(C)CC(=O)C2=C(C1)Nc1ccccc1NC2c1cccnc1` (configuration not stated), for which the cell number change was -81%. For the same compound, under setting [2], the concentration at half-maximal activity (AC50) is 29.1 µM [falling, single point].

Turning to `Cc1cc(NCc2ccccn2)n2c(nc3ccccc32)c1C#N`, the cell number change is -19.2%.

As for `O=Nc1c(O)[nH]c2ccc(Cl)cc12`, the cell number change came to 32.5%. The half-maximal activity concentration (AC50) under setting [2] was 0.92 µM [falling, full curve]. In addition, under setting [1], the AC50 is 0.00461 µM [rising, full curve, poor fit].

As to `COc1cc(N)c(Cl)cc1C(=O)OCC(=O)N1CCCCCC1`, the cell number change stood at 29.2%. Under setting [1], the AC50 is 1.16 µM [rising, partial curve].

Regarding `CC1(C)O[C@@H]2[C@H](O1)[C@@H](CO)O[C@H]2n1ccc(=O)[nH]c1=O`, the cell number change is -3.25%.

With `O=C(CS(=O)(=O)c1ccccc1)Nc1ccc(S(=O)(=O)Nc2ncccn2)cc1`, the cell number change was -41.5%. The AC50 under setting [2] was 16.4 µM [falling, partial curve].

As to `Cc1n[nH]c(=O)c2c1nnn2Cc1ccc(F)cc1`, the cell number change turned out to be 17.7%.

For `CC(C)C[C@H](NC(=O)C1CC(=O)N(c2ccc3c(c2)OCCO3)C1)C(=O)N1CCCCC1` (some centres not stated), the cell number change was -15.3%.

Regarding `COc1ccc(NC(=S)N2CCN(CCN3C(=O)c4cccc5cccc(c45)C3=O)CC2)cc1`, the cell number change was 5.15%.

For `CC1CCCN(C(=O)NC2CC(=O)N(c3ccc4c(c3)OCCO4)C2)C1` (configuration not stated), the cell number change worked out at 2.99%.

As for `COc1ccc(C(C)=O)c(OC(=O)c2ccc(OC)c(OC)c2)c1`, the concentration at half-maximal activity (AC50) under setting [1] is 6.51 µM [falling, partial curve, poor fit].

For the compound `CN(C)/C=N/C(=S)Nc1ccc(F)cc1`, the cell number change is 24%. Besides, under setting [2], the half-maximal activity concentration (AC50) is 2.31 µM [rising, full curve, poor fit].

On to `CC(C)Oc1cccc(C(=O)C2CCCN(Cc3cnc(N4CCCC4)s3)C2)c1` (configuration not stated), for which the cell number change is -24.6%. In addition, the AC50 under setting [1] was 16.4 µM [falling, single point].

`O=C(Nc1cccc(-n2cnnn2)c1)c1ccncc1`: the cell number change was -2.02%. For the same compound, the AC50 under setting [1] is 1.84 µM [rising, partial curve, poor fit].

Regarding `CC1CC(=O)c2cnc(Nc3cccc(C(F)(F)F)c3)nc2C1` (configuration not stated), the cell number change stood at 6.16%. Further, the concentration at half-maximal activity (AC50) under setting [1] was 4.11 µM [rising, single point].

For the compound `Cc1ccc(CN2CC(C(=O)NCCCSc3ccccc3)CC2=O)cc1` (configuration not stated), the cell number change is 4.99%.

For `O=C(CCn1ccnc1)Nc1cc(Cl)ccc1O`, the cell number change came out at 10.5%.

`CC(C)(C)C(=O)Nc1nnc(CSCc2ccccc2F)s1`: the AC50 runs as follows: under setting [2], 2.59 µM [rising, single point]; under setting [1], 3.26 µM [rising, partial curve, poor fit].

On to `COc1ccc(CNC(=O)CN(C(=O)c2csnn2)c2cccc(F)c2)cc1`, for which the cell number change came out at 14.1%. For the same compound, the concentration at half-maximal activity (AC50) under setting [1] was 29.1 µM [rising, single point].

Turning to `O=C(CSc1nc2ccccc2c(=O)n1-c1ccc(F)cc1F)c1c[nH]c2ccccc12`, the cell number change was -6.97%. The AC50 under setting [1] was 3.26 µM [rising, single point].

Turning to `Cc1nn(-c2ccc(N3CCCCC3)nn2)c(C)c1CCC(=O)Nc1cccc(F)c1`, the cell number change was 12.2%. Further, the concentration at half-maximal activity (AC50) under setting [2] was 0.0651 µM [rising, full curve, poor fit].

On to `Cc1cc(C)nc(NS(=O)(=O)c2ccc(N3C(=O)C4CC=C(Cl)CC4C3=O)cc2)n1` (configuration not stated), for which the cell number change was -20.4%.

Turning to `CCCn1nnnc1NC(=O)c1ccc2ccccc2c1`, the cell number change came out at 10.7%. Under setting [1], the AC50 was 0.92 µM [rising, full curve].

In the case of `CCC(=O)N(C1=C(NC(C)C)C(=O)c2ccccc2C1=O)C(C)C`, the cell number change is -45.4%. Moreover, the half-maximal activity concentration (AC50) under setting [2] was 16.4 µM [falling, single point]. In addition, the AC50 under setting [1] is 14.6 µM [falling, partial curve].

On to `O=c1[nH]c2cnccc2n1-c1ccccc1`, for which the cell number change stood at 40%. Further, under setting [2], the AC50 is 20.6 µM [rising, single point].

Turning to `Cc1ccc(/C=c2\s/c(=C(/C#N)C(=O)N3CCCC3)n(Cc3ccco3)c2=O)s1`, the cell number change came out at 148%. Further, under setting [2], the AC50 was 9.2 µM [rising, partial curve]. Further, under setting [1], the half-maximal activity concentration (AC50) was 29.1 µM [rising, single point].

In the case of `CNC(=O)NC(=O)CSc1ccc(NC(C)=O)cc1`, the cell number change is 12.8%. Besides, the AC50 under setting [1] is 0.146 µM [rising, full curve, poor fit].

As for `CC(O)CNc1nc2ccccc2n1CC(=O)NCC(F)(F)F` (configuration not stated), the cell number change came out at 5.49%. The half-maximal activity concentration (AC50) under setting [1] is 14.6 µM [rising, single point].

Consider `O=C(NC1CCCc2ccccc21)c1ccc([N+](=O)[O-])cc1` (configuration not stated), for which the cell number change worked out at 14%. Besides, the concentration at half-maximal activity (AC50) under setting [1] is 3.66 µM [rising, partial curve].

For the compound `COCCn1c(N)c(N(Cc2ccccc2)C(=O)C2CCCCC2)c(=O)[nH]c1=O`, the cell number change was determined as 42.4%. Under setting [2], the concentration at half-maximal activity (AC50) is 29.1 µM [rising, single point]. In addition, the AC50 under setting [1] was 29.1 µM [rising, single point].

For `COc1ccc(C)cc1NC(=O)CCS(=O)(=O)c1cccc2nonc12`, the cell number change came to 3.79%. Moreover, under setting [1], the AC50 is 0.58 µM [rising, single point].

As to `O=C(CN1CCN(S(=O)(=O)c2cccs2)CC1)NCC1CCCCC1`, the cell number change amounted to 23.8%. For the same compound, the AC50 under setting [2] is 0.00517 µM [rising, full curve, poor fit]. Further, under setting [1], the AC50 is 0.00517 µM [rising, full curve, poor fit].
